{
  "sequences": {"note": "Sequences of proteins named here, by UniProt entry; tags and fusion partners are left off. A change or cut given only in a name is not applied to a line headed by its entry.", "UniProt P51450": "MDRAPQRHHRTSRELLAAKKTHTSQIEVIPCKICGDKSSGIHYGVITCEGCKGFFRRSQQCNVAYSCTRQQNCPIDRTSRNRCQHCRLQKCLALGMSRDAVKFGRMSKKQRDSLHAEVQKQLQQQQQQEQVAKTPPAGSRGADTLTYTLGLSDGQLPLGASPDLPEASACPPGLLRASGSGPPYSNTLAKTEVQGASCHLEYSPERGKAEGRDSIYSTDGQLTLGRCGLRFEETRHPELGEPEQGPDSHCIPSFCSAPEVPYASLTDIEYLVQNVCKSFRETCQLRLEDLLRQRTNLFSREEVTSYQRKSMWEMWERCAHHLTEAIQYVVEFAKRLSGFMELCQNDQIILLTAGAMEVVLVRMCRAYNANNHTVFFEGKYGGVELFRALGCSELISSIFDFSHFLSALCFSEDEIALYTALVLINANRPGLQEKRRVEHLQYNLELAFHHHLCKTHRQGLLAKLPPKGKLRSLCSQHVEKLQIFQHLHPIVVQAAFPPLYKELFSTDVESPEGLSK"},
  "source": "PubChem BioAssay AID2551",
  "about": "(National Center for Advancing Translational Sciences (NCATS), 2010)",
  "note": "Where “and” joins values, the source holds several entries; their conditions need not be identical. Equal values may be shown once. Screen size: about 310,000 compounds; about 17,000 (5.5%) were called active. The inconclusive results got no clear call from the source; some entries with a clear call stand among them for comparison. Calls come from the whole dose curve; as a rule, active = well fitted inhibition curve with a large enough effect; inconclusive = small, poorly fitted or top-dose-only effect, or effect the other way; inactive = no such curve, though single readings can be large or run the other way. Where the call is inconclusive, the potency comes from a doubtful curve fit. % is set by controls: 0 for no effect and ±100 for the full control effect; potency is the fitted concentration of half-maximal effect.",
  "data": [
    {"target": "Nuclear receptor ROR-gamma (Mus musculus) (UniProt P51450)", "test": "qHTS for inhibitors of ROR gamma transcriptional activity; note: nearly all actives have a fitted effect of over 60% in size", "conditions": "Drosophila S2 Gal4-RORgamma UAS-luciferase reporter, 20 h; activity change, negative = inhibition: at 53.6 µM (top of the series)", "outline": "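Luciferase reporter read in Schneider cells carrying Gal4-RORγ (mouse) and UAS-Photinus luciferase; cells given compound 1 h before 700 uM copper sulfate induction, then incubated 20 h at ambient temperature.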", "values": [
      {"smiles": "COc1ccc(NC(=O)CCN2CCCC2)c(OC)c1", "Potency": "inconclusive: 5.62 µM [inhibitor, single point]"},
      {"smiles": "CCNS(=O)(=O)c1ccc(CCC(=O)N2CCN(c3cccc(Cl)c3)CC2)cc1", "Potency": "inconclusive: 15.8 µM [activator, partial curve]"},
      {"smiles": "CC(C)[C@H](NC(=O)N1c2ccccc2NC(=O)[C@@H]1C(C)C)C(=O)N[C@H](C(=O)O)c1ccccc1", "activity change, negative = inhibition": "inactive: -2.3%"},
      {"smiles": "COc1ccc(NS(=O)(=O)c2ccc(NC(=O)C3CC3)cc2)cc1", "Potency": "inconclusive: 10 µM [activator, partial curve]"},
      {"smiles": "Cc1ccc(C)c(N2CCN(S(=O)(=O)CC34CCC(CC3=O)C4(C)C)CC2)c1", "note": "(stereo not given)", "Potency": "inconclusive: 35.5 µM [activator, single point]"},
      {"smiles": "COc1cc2c3nnc(-c4ccccc4)c-3cn(Cc3ccccc3F)c2cc1OC", "Potency": "active: 8.91 µM"},
      {"smiles": "CC1CC(c2ccccc2)n2nc(NC(=O)c3cccs3)nc2N1", "note": "(stereo not given)", "Potency": "active: 14.1 µM"},
      {"smiles": "Oc1ccc(Br)cc1/C=N/n1cnc2ccccc21", "Potency": "inconclusive: 17.8 µM [inhibitor, single point]"},
      {"smiles": "Cc1nc(C(=O)Nc2ccc(Cl)cc2)nn1-c1ccc([N+](=O)[O-])cc1", "activity change, negative = inhibition": "inactive: 18.7%"},
      {"smiles": "CC(=O)Nc1sc(NC(=O)c2ccc(C)cc2)nc1-c1cccs1", "Potency": "inconclusive: 0.708 µM [activator, full curve, poor fit]"},
      {"smiles": "CC(C)=CCC1=C(O)c2ccccc2C(=O)C1=O", "Potency": "inconclusive: 35.5 µM [inhibitor, single point] and inconclusive: 3.16 µM [inhibitor, single point]"},
      {"smiles": "COc1ccc(OC)c(NC(=O)C(=S)NC2CCCCC2)c1", "activity change, negative = inhibition": "inactive: -40.4%"},
      {"smiles": "OCC1(CO)COC(/C=C/c2ccccc2)=N1", "activity change, negative = inhibition": "inactive: 21.9%"},
      {"smiles": "CSc1ccccc1NC(=O)CN(C)CC(=O)Nc1ccc(Cl)cc1F", "Potency": "active: 11.2 µM"},
      {"smiles": "C1=CC2c3ccccc3NC(c3ccncc3)C2C1", "note": "(stereo not given)", "Potency": "inconclusive: 11.2 µM [inhibitor, single point]"},
      {"smiles": "O=C(Nc1ccc(N2CCOCC2)cc1Cl)C1CCN(C(=O)OCc2ccccc2)CC1", "activity change, negative = inhibition": "inactive: 41.7%"},
      {"smiles": "Cc1cc(NC(=O)CSc2nnc(-c3ccc4c(c3)OCCO4)o2)no1", "Potency": "inconclusive: 7.94 µM [inhibitor, partial curve]"},
      {"smiles": "CN1CCN(S(=O)(=O)c2ccc(NC(=S)NC(=O)C3CCCCC3)cc2)CC1", "Potency": "inconclusive: 17.8 µM [inhibitor, single point]"},
      {"smiles": "CC(Sc1nc2ccccc2s1)C(=O)NC1CCCc2ccccc21", "note": "(stereo not given)", "activity change, negative = inhibition": "inactive: 10.2%"},
      {"smiles": "Cc1ccc(-n2c(Cn3c(C)nc4ccccc43)n[nH]c2=S)cc1", "Potency": "inconclusive: 20 µM [inhibitor, single point]"},
      {"smiles": "O=C(CCN1C(=O)/C(=C\\c2ccccc2F)SC1=S)N1CCCCC1", "Potency": "inconclusive: 3.16 µM [inhibitor, full curve, poor fit]"},
      {"smiles": "O=C(/C=C/c1ccco1)Nc1ccc2nc3n(c(=O)c2c1)CCCC3", "activity change, negative = inhibition": "inactive: 14.6%"},
      {"smiles": "CCOC(=O)c1c(-c2ccccc2)csc1NC(=O)CSc1nnc(C)s1", "Potency": "inconclusive: 11.2 µM [activator, partial curve]"},
      {"smiles": "CCN(CC)CCCNC(=S)N1CCN(c2nc(-c3ccccc3)cs2)CC1", "Potency": "inconclusive: 12.6 µM [inhibitor, single point]"},
      {"smiles": "S=C(NCc1cccs1)Nc1cccc2ccccc12", "Potency": "active: 3.55 µM"},
      {"smiles": "Cc1cc(C(=O)CSc2ncccn2)c(C)n1Cc1ccco1", "activity change, negative = inhibition": "inactive: -30.2%"},
      {"smiles": "CC(C)NC(=O)COc1ccc(OCc2ccccc2)cc1", "activity change, negative = inhibition": "inactive: 27.9%"},
      {"smiles": "Cc1cc(C(=O)CSc2nnc(N)s2)c(C)n1CCc1ccc(Cl)cc1", "activity change, negative = inhibition": "inactive: 19%"},
      {"smiles": "O=c1cc(CSc2nnnn2-c2ccc(O)cc2)nc2sccn12", "Potency": "inconclusive: 17.8 µM [activator, single point]"},
      {"smiles": "CC(=O)Oc1ccc(C2(c3ccc(OC(C)=O)cc3)C(=O)Nc3ccccc32)cc1", "Potency": "inactive"},
      {"smiles": "CCc1cc(-c2n[nH]c(C)c2-c2nc3ccccc3n2C)c(O)cc1O", "activity change, negative = inhibition": "inactive: -3.38%"},
      {"smiles": "O=C(CCc1nc(-c2ccccc2F)no1)NC1CCCCC1", "Potency": "inconclusive: 12.6 µM [activator, partial curve]"},
      {"smiles": "Cc1ccccc1CN1CCN(CC(=O)NCCCN2CCN(c3ccc(F)cc3)CC2)C1=O", "Potency": "inconclusive: 14.1 µM [activator, partial curve]"},
      {"smiles": "COc1cc(/C=C2\\SC(c3ccc(C)cc3)=NC2=O)cc(OC)c1O", "Potency": "inconclusive: 20 µM [inhibitor, single point]"},
      {"smiles": "O=C(CNc1ccccc1)NNC1=NCCC1", "Potency": "inconclusive: 35.5 µM [inhibitor, single point]"},
      {"smiles": "Cc1c(/C=C2\\SC(=O)N(CC(=O)Nc3ccc4c(c3)OCO4)C2=O)c2ccccc2n1C", "Potency": "inconclusive: 4.47 µM [activator, partial curve]"},
      {"smiles": "Cc1c(NC(=S)NC(=O)c2ccco2)cccc1-c1nc2ncccc2o1", "Potency": "inconclusive: 0.891 µM [inhibitor, single point]"},
      {"smiles": "COC(=O)CC1c2ccccc2C=C(C2CC2)N1C(=O)OC", "note": "(stereo not given)", "activity change, negative = inhibition": "inactive: 2.29%"},
      {"smiles": "Cc1ncc(COP(=O)(O)O)c(C=O)c1O", "activity change, negative = inhibition": "inactive: 3.2% [at 10 µM]"},
      {"smiles": "Cc1cccc(Nc2nc(-c3ccc(O)cc3O)cs2)n1", "Potency": "active: 3.98 µM"},
      {"smiles": "Cc1ccc(/C=C2\\SC(=S)N(CC3CCCO3)C2=O)o1", "note": "(stereo not given)", "Potency": "active: 12.6 µM"},
      {"smiles": "O=C(N/N=C/c1ccc(O)cc1)c1csc2c1CCCC2", "Potency": "inconclusive: 3.55 µM [activator, full curve, poor fit]"},
      {"smiles": "COc1ccccc1OCc1ccc(C(=O)N(C)c2ccccc2)o1", "Potency": "inconclusive: 12.6 µM [activator, single point]"},
      {"smiles": "Cc1ccc(C(=O)CCS(=O)(=O)c2ccc(F)cc2)cc1", "Potency": "active: 3.16 µM"},
      {"smiles": "CCC(=O)C1=C(O)C(c2cccc(Oc3ccccc3)c2)CCC1=O", "note": "(stereo not given)", "Potency": "inconclusive: 20 µM [inhibitor, single point]"},
      {"smiles": "Cc1cc(C)cc(Cn2ncc(Cl)c(Cl)c2=O)c1", "Potency": "inconclusive: 35.5 µM [inhibitor, single point]"},
      {"smiles": "COc1ccc(-c2nc3ccc([N+](=O)[O-])cc3[nH]2)cc1", "activity change, negative = inhibition": "inactive: -32.9%"},
      {"smiles": "CC(C)Oc1ccc(C(CCNCc2ccc(O)cc2)c2ccccc2)cc1", "note": "(stereo not given)", "Potency": "inconclusive: 35.5 µM [inhibitor, single point]"},
      {"smiles": "N#Cc1cccc(C(c2nnnn2CCc2ccccc2)N2CCN(C3CCCCC3)CC2)c1", "note": "(stereo not given)", "Potency": "inconclusive: 1.41 µM [inhibitor, partial curve]"},
      {"smiles": "CCOC(=O)CSCC(NC(=O)OC(C)(C)C)C(=O)OCC", "note": "(stereo not given)", "Potency": "active: 7.08 µM"},
      {"smiles": "CCCC(=O)NC(NC(=S)Nc1ccc(N=Nc2ccccc2)cc1)C(Cl)(Cl)Cl", "note": "(stereo not given)", "Potency": "inconclusive: 35.5 µM [inhibitor, single point]"},
      {"smiles": "Cc1ccc2nc(NC(=O)C3CC(=O)N(Cc4ccco4)C3)sc2c1", "note": "(stereo not given)", "Potency": "inconclusive: 12.6 µM [activator, partial curve]"},
      {"smiles": "CCN1CCN(c2cc(C)c3cc(NC(=S)N(C)Cc4ccccc4)ccc3n2)CC1", "activity change, negative = inhibition": "inactive: -15.1%"},
      {"smiles": "Cc1ccc2nc(NC(=O)CCNS(=O)(=O)c3cccs3)sc2c1", "Potency": "inconclusive: 17.8 µM [activator, single point]"},
      {"smiles": "Cc1cc(N2CCOCC2)nc2ccc(NC(=S)N3CCN(Cc4ccccc4)CC3)cc12", "Potency": "inconclusive: 35.5 µM [inhibitor, single point]"},
      {"smiles": "COc1ccccc1N1CCN(C(=O)c2sc3nc(-c4ccccc4)cn3c2C)CC1", "activity change, negative = inhibition": "inactive: -37.2%"},
      {"smiles": "COc1cccc(CNc2ccc(F)c([N+](=O)[O-])c2)c1O", "Potency": "inconclusive: 5.01 µM [activator, single point]"},
      {"smiles": "CCN1CCN(C2=C(NS(=O)(=O)c3ccc(Br)cc3)C(=O)c3ccccc3C2=O)CC1", "Potency": "inconclusive: 14.1 µM [inhibitor, partial curve]"},
      {"smiles": "COc1ccc(S(=O)(=O)Nc2cccc(S(=O)(=O)N3CCCCCC3)c2)cc1", "activity change, negative = inhibition": "inactive: 25.8%"},
      {"smiles": "O=C(NC1CS(=O)(=O)CC1NCc1ccco1)c1ccccc1", "note": "(stereo not given)", "activity change, negative = inhibition": "inactive: -2.93%"},
      {"smiles": "C=CCOc1ccccc1CN1CCC(Oc2ccc(C(=O)N3CCCCC3)cc2)CC1", "Potency": "inconclusive: 3.98 µM [inhibitor, single point]"},
      {"smiles": "O=C(/C=C/c1cccs1)c1ccc(NC(=O)c2cccc(Br)c2)cc1", "Potency": "inconclusive: 1.41 µM [inhibitor, full curve, poor fit]"},
      {"smiles": "O=c1c2ccccc2nc(CSc2nnnn2-c2ccccc2)n1-c1ccccc1Cl", "Potency": "inconclusive: 1.78 µM [inhibitor, partial curve, poor fit]"},
      {"smiles": "Cc1ccc(NC(=S)Nc2ccc(F)cc2)c(C)c1", "Potency": "active: 11.2 µM"},
      {"smiles": "NC1=NC(=O)/C(=C\\c2cccnc2)S1", "Potency": "inconclusive: 2 µM [inhibitor, full curve, poor fit]"},
      {"smiles": "CC(c1ccccc1)N1CCC(CNC(=S)Nc2cccc(Cl)c2)C1", "note": "(stereo not given)", "Potency": "active: 10 µM"},
      {"smiles": "Cc1cc(Cl)ccc1NC(=S)Nc1ccccn1", "Potency": "active: 1 µM"},
      {"smiles": "Cc1sc2nc(COC(=O)c3cccc(OC(F)F)c3)[nH]c(=O)c2c1C", "Potency": "inconclusive: 12.6 µM [inhibitor, single point]"},
      {"smiles": "COc1cccc(C2C(C)CCC3C(=O)N(C)C(C(C)C)C(=O)N32)c1", "note": "(stereo not given)", "activity change, negative = inhibition": "inactive: -15% [at 10 µM]"},
      {"smiles": "Cc1occc1C(=O)N/N=C/c1ccc(-c2ccccc2)cc1", "Potency": "active: 12.6 µM"},
      {"smiles": "Cc1noc2c1C(c1ccc(N(C)C)cc1)C1=C(CC(C)(C)CC1=O)N2", "note": "(stereo not given)", "activity change, negative = inhibition": "inactive: -11.4%"},
      {"smiles": "CCN(CC)S(=O)(=O)c1ccc(C(=O)NCCN2C(=O)S/C(=C\\c3cccnc3)C2=O)cc1", "activity change, negative = inhibition": "inactive: 16.5%"},
      {"smiles": "Cc1[nH]c2c(C)cccc2c1CCNC(=O)c1ccc2c(c1[N+](=O)[O-])C(=O)c1ccccc1C2=O", "Potency": "active: 6.31 µM"},
      {"smiles": "CN1CCN(C(=S)NC(=O)/C=C/c2cccs2)CC1", "Potency": "active: 10 µM"},
      {"smiles": "O=C(NC(=S)Nn1cnnc1)c1cccc(Br)c1", "activity change, negative = inhibition": "inactive: -26.6%"}
    ]}
  ]
}
